Results reported in PMC3907542 (PLoS ONE, 2014).
Like-named read-outs stand apart in the source and are kept apart here.

Assays:
rat plasma proteins = assay: Plasma protein binding of nifedipine in vitro with or without baicalin (ultrafiltration); type: in vitro ADME; details: start of the increase with increasing baicalin (0 to 2000 mg/L)
[1] = for V: nifedipine 2 mg/kg i.v.
plasma proteins = details: in vivo, nifedipine and saline
in vivo = details: Sprague Dawley, rat, iv, 2 mg/kg, rats; for AUC(0-inf): AUC0–∞, nifedipine 2 mg/kg i.v.; for Cmax: C max, total nifedipine 2 mg/kg i.v., n = 12
[2] = after baicalin 0.225 g/kg vs control, rats

Question: Which results are given for `COC(=O)C1=C(C)NC(C)=C(C(=O)OC)C1c1ccccc1[N+](=O)[O-]` [nifedipine]?
Answer: unbound nifedipine (%) (rat plasma proteins): 4.00%; decrease of AUC0–∞ [1, 2]: 41%±8%; decrease of C max of total nifedipine [1, 2]: 40%±14%; increase of apparent volume of distribution (Vd) [1, 2]: 85% ±43%; increase of apparent volume of distribution (Vd) ([1]; after baicalin […] vs control, rats): 224%±231%; V ([1]; after baicalin 0.225 g/kg i.v., rats): 0.26 ± 0.06 L/kg; V ([1]; after baicalin […] i.v., rats): 0.46±0.07 ^△ L/kg; V ([1]; control (saline), rats): 0.14 ± 0.03 L/kg; decrease of C max, individual rat ([1]; rat 7, baicalin 0.225 g/kg): 12.11%; decrease of C max, individual rat ([1]; rat 8, baicalin 0.225 g/kg): 57.91%; mean unbound nifedipine (%) (plasma proteins): 3.92%; AUC(0-inf) (in vivo; after baicalin 0.225 g/kg i.v.): 6580 ± 1290 ng·h/mL; AUC(0-inf) (in vivo; after baicalin […] i.v.): 4060 ± 670 ng·h/mL; AUC(0-inf) (in vivo; control (saline)): 11100 ± 1170 ng·h/mL; Cmax (in vivo; after baicalin 0.225 g/kg i.v.): 8420 ± 2280 ng/mL; Cmax (in vivo; after baicalin […] i.v.): 4970 ± 1750 ng/mL; Cmax (in vivo; control (saline)): 14100 ± 2700 ng/mL
